Results published in patent US20250057950A1 (ORICELL THERAPEUTICS, published 2025).
Results are given in words; binding and its absence hold for the method and conditions named. Some binding calls cover weakened binding; strength is not graded here. Tags and fused reporters may be left off the sequences shown.

Sequences of proteins named here, by UniProt entry; tags and fusion partners are left off.
UniProt Q9NZD1: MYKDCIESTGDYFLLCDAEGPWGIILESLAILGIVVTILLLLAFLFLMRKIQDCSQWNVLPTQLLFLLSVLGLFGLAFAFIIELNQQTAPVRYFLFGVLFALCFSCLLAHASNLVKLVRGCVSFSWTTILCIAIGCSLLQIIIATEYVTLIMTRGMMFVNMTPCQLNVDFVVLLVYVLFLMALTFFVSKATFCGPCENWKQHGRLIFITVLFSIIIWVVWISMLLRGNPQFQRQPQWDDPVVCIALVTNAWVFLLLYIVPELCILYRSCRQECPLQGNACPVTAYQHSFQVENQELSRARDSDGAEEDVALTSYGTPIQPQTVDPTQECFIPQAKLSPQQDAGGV

Key:
[1] = biological target: human G protein-coupled receptor class C group 5 member D (GPRC5D) protein (human) (UniProt Q9NZD1); test: flow cytometry on CHO-GPRC5D cells, anti-6xHis detection; G5VHH1-his titrated alone and on cells pre-incubated with a fixed concentration of G5VHH2-hFc
[2] = biological target: human G protein-coupled receptor class C group 5 member D (GPRC5D) protein (human) (UniProt Q9NZD1); test: flow cytometry on CHO-GPRC5D cells, with and without pre-bound G5VHH2-hIgG1Fc as competitor

B1: G5VHH1-His (VHH)
VHH: EVQLVESGGGLVQPGGSLRLSCAASGRIFSRDAMGWFRQAPGKGRELVAAINSSGGNTYYPDSVEGRFTISRDNAKRMVYLQMNSLRAEDTAVYYCAARGVRWTSTTAYGYNYWGQGTQVTVSS
binding [1]: binds | binding [2]: binds
